PubChem BioAssay AID1259254 | NCATS, 2017

- Aim: 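Finding genes that stop cells copying their DNA twice in one cycle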 (primary screen)
- Cell system: human HCT116 colorectal cancer cells
- Reagent: single siRNA against human genes
- Duration: 3 days
- Detection: 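Imaged Hoechst DNA stain sorts each cell into a cycle phase by DNA amount; per plate, G2 fraction set to 0% for non-targeting and 100% for GMNN siRNA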
- Scale: G2 robust z-score: higher = more G2 cells, more excess DNA replication
- Rule for the call: 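An siRNA counts as active if its G2 robust z-score lies at least 5 MADs above the screen median; here such calls match roughly 38% of GMNN control or more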
The deposit covers about 59,000 reagents; this is a part drawn at random. About 1,550 of all reagents (2.6%) count as active. 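G2 share is only a proxy for re-replication; each gene was hit by three separate siRNAs, and active genes were retested.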 The numbers tell different reagents against one gene apart. Further read-outs or replicates are left out here. Reagent sequences are not shown. Not given: the amount of reagent.

With knock-down of RGS8 #1, the record shows G2 robust z-score -0.252; inactive. Knock-down of RGS8 #2 came out at: G2 robust z-score -0.599; inactive. RGS8 #3 scored G2 robust z-score -0.805; inactive. With knock-down of LOC649294 (retired record) #1, the screen gave G2 robust z-score -0.0625; inactive. LOC649294 (retired record) #2 scored G2 robust z-score -0.256; inactive. LOC649294 (retired record) #3 gave G2 robust z-score -0.321; inactive.

Against MRGPRX3 #1 the deposit lists G2 robust z-score 0.502; inactive. With knock-down of MRGPRX3 #2 the results were G2 robust z-score 3.24; inactive. Against MRGPRX3 #3 the deposit lists G2 robust z-score -0.504; inactive. SRARP #1 showed G2 robust z-score -0.225; inactive. After knock-down of SRARP #2, the screen gave G2 robust z-score 0.586; inactive. After knock-down of SRARP #3, the record shows G2 robust z-score 0.215; inactive.

3 of these entries, reformatted.
target	siRNA no.	G2 robust z-score	Outcome
MRGPRX3	3	-0.504	inactive
SRARP	1	-0.225	inactive
SRARP	2	0.586	inactive

Continued:
For PTPRU #1 the deposit lists G2 robust z-score 1.83; inactive. PTPRU #2 gave G2 robust z-score -0.62; inactive. Knock-down of PTPRU #3 resulted in: G2 robust z-score -1; inactive. With knock-down of NACA3P #1, the screen gave G2 robust z-score 0.691; inactive. NACA3P #2 scored G2 robust z-score 0.577; inactive. Silencing of NACA3P #3 gave: G2 robust z-score 0.0208; inactive.

Against CEBPG #1 the deposit lists G2 robust z-score 1.14; inactive. Depletion of CEBPG #2 gave: G2 robust z-score 3.11; inactive. Against CEBPG #3, the values are G2 robust z-score 0.135; inactive. Knock-down of TOMM22P3 #1 gave: G2 robust z-score 3.22; inactive. Against TOMM22P3 #2 the deposit lists G2 robust z-score 0.856; inactive. For TOMM22P3 #3 the deposit lists G2 robust z-score -1.18; inactive.

Against SH3PXD2A #1, the entry reads G2 robust z-score -0.375; inactive. Against SH3PXD2A #2, the values are G2 robust z-score -0.387; inactive. Knock-down of SH3PXD2A #3 came out at: G2 robust z-score -0.124; inactive. Silencing of DLGAP1-AS5 #1 came out at: G2 robust z-score -0.885; inactive. After knock-down of DLGAP1-AS5 #2, the record shows G2 robust z-score 0.101; inactive. Silencing of DLGAP1-AS5 #3 gave: G2 robust z-score 1.83; inactive.
